Assay results as given in PMC6547406.
Construct, isoform or probe ends are uncertain for at least one entry. For some of these results: At least one verdict was read from the data and is not stated in words by the source.

Protein sequences, listed by entry. Tags and fused reporters are not part of them. Residues count along the entry.
UniProt P61244, 22-103 R25C: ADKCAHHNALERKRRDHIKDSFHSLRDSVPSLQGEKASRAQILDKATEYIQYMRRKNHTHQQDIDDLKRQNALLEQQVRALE
UniProt P61244, 22-103 R75C: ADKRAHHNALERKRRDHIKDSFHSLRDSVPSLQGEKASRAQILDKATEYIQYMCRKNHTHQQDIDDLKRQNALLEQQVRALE
UniProt P61244, 22-103 G55C: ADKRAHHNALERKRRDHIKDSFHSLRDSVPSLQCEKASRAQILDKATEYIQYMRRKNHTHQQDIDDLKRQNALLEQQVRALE

Tests used:
SL-R5C-MAX2 R25C [1] = biological target: SL-R5C-MAX2 R25C (UniProt P61244); experiment: EPR (CW and DEER); conditions: MAX2:DNA 1:1, DEER on vitrified sample with 15% glycerol; recombinant protein
SL-R5C-MAX2 R25C [2] = biological target: SL-R5C-MAX2 R25C (UniProt P61244); experiment: NMR (1H-15N HSQC/TROSY, PRE); conditions: MAX2:DNA 1:1, no residual apo-MAX2 observed; EBOX DNA:MAX2 1:1; DEER samples vitrified with 15% glycerol; recombinant protein
SL-R55C-MAX2 R75C = SL-R55C-MAX2 R75C (UniProt P61244); experiment: EPR (DEER); conditions: MAX2:DNA 1:1, holo-state, vitrified with 15% glycerol; recombinant protein
SL-G35C-MAX2 G55C = SL-G35C-MAX2 G55C (UniProt P61244); experiment: EPR (DEER); conditions: MAX2:DNA 1:1, holo-state, vitrified with 15% glycerol; recombinant protein

Measured: binding result

AAACACGTGAAA (double strand) [EBOX DNA]
binds: all assays above
